Values joined by “and” are separate entries in the source; they are usually repeats but may differ in a detail not shown here. Equal values may be shown once. Where a name gives a salt, the structure may show the parent alone. ± gives the standard deviation of the averaged measurements. The list shows a part of the results. Plates or batches differ in their baseline, so values are only roughly comparable.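 Assay uses culture-activated primary human stellate myofibroblasts; lipid droplet recovery indicates inactivation. Measured: proportion of Hoechst-counted cells over a plate-specific Bodipy cutoff, duplicate wells, DMSO and nortriptyline as per-plate negative and positive controls. A hit scores, control-normalized, above the plate's top-tenth-percentile nortriptyline wells or ranks among its three best wells. Final well concentrations not reported.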
System: primary human hepatic stellate cells (donor 1)
Experiment: percent Bodipy-positive cells; higher = more lipid droplet accumulation
Conditions: 48 h
[1] = library stock concentration: 10 mM
[2] = library stock concentration: 3.33 mM
[3] = library stock concentration: 1 mM
[4] = library stock concentration: 100 uM
[5] = library stock concentration: 7.2 mM

O=c1cccc2n1C[C@@H]1CNC[C@H]2C1 [(-)-Cytisine]
percent Bodipy-positive cells [1]: 10.3 ± 2.9%

O=c1cccc2n1C[C@@H]1CNC[C@H]2C1 [Cytisine]
percent Bodipy-positive cells [2]: 8.51 ± 3.8%

O=c1cccc2n1C[C@@H]1CNC[C@H]2C1 [Cytisine (-)]
percent Bodipy-positive cells: 36.4 ± 14%

NCC1(CC(=O)O)CCCCC1 [Gabapentin]
percent Bodipy-positive cells: 8.92 ± 3.1%
percent Bodipy-positive cells [3]: 10.4 ± 0.6%

O=C1C2CCN(CC2)C1(CO)CO
percent Bodipy-positive cells (library stock concentration: 27 mM): 97.4 ± 2.6%

Cl.Cl.Fc1ccc(C(OCCN2CCN(CCCc3ccccc3)CC2)c2ccc(F)cc2)cc1
percent Bodipy-positive cells [1]: 82.1 ± 1%

Cl.Oc1ccc2c3c1O[C@H]1c4[nH]c5ccccc5c4C[C@@]4(O)C(C2)N(CC2CC2)CC[C@]314 [Naltrindole hydrochloride]
percent Bodipy-positive cells [1]: 80.3 ± 4.3%

CCN1CCN(C(=O)Cc2ccc(Nc3ncc(F)c(Nc4ccc(C(=O)Nc5ccccc5Cl)cc4)n3)cc2)CC1
percent Bodipy-positive cells (library stock concentration: 80 uM): 25.2 ± 25%
percent Bodipy-positive cells (library stock concentration: 400 uM): 12.5 ± 2.9%
percent Bodipy-positive cells (library stock concentration: 2 mM): 66.3 ± 5.8%
percent Bodipy-positive cells [1]: 99.17 ± 0.23%

CCN1CCN(C(=O)Cc2ccc(Nc3ncc(F)c(Nc4ccc(C(=O)Nc5ccccc5Cl)cc4)n3)cc2)CC1 [Aurora A Inhibitor I]
percent Bodipy-positive cells [2]: 92.3 ± 2.3%

CCCn1c(=O)c2[nH]c(C3CCCC3)nc2n(CCCOC(=O)c2ccc(S(=O)(=O)F)cc2)c1=O
percent Bodipy-positive cells [1]: 67 ± 4.7%

CN1CCc2cc3c(cc2C1C1OC(=O)c2c1ccc1c2OCO1)OCO3 (single isomer, unassigned; (+)) [(+)-Bicuculline]
percent Bodipy-positive cells [2]: 12.3 ± 4.6%
percent Bodipy-positive cells [1]: 28.3% and 6.69%

CC(O)(CS(=O)(=O)c1ccc(F)cc1)C(=O)Nc1ccc(C#N)c(C(F)(F)F)c1 (stereo unspecified) [Bicalutamide (CDX)]
percent Bodipy-positive cells [1]: 24.1 ± 7.8%

CC(O)(CS(=O)(=O)c1ccc(F)cc1)C(=O)Nc1ccc(C#N)c(C(F)(F)F)c1 (stereo unspecified) [Bicalutamide]
percent Bodipy-positive cells [2]: 13.9 ± 3.2%
percent Bodipy-positive cells [1]: 19.8 ± 2.7%

CC(O)(CS(=O)(=O)c1ccc(F)cc1)C(=O)Nc1ccc(C#N)c(C(F)(F)F)c1 (stereo unspecified)
percent Bodipy-positive cells [1]: 17.9 ± 5.1%

O=C(CCCN1CCC2(CC1)C(=O)NCN2c1ccccc1)c1ccc(F)cc1 [Spiperone]
percent Bodipy-positive cells (library stock concentration: 5.1 mM): 85.4 ± 1.8%

CCOC(=O)c1cncn1[C@H](C)c1ccccc1 [Etomidate]
percent Bodipy-positive cells: 8.37 ± 3.4%
percent Bodipy-positive cells [2]: 10.1 ± 4.3%
percent Bodipy-positive cells [1]: 15.3% and 10.7% and 31%

CCC1(c2ccc(N)cc2)CCC(=O)NC1=O (racemic) [Dl-aminoglutethimide]
percent Bodipy-positive cells (library stock concentration: 8.6 mM): 5.89 ± 1.2%

CCCCC/C=C\C/C=C\C/C=C\C/C=C\CCCC(=O)NOCCO [oxy-Arachidonoyl Ethanolamide]
percent Bodipy-positive cells [3]: 7.03 ± 1.1%

CCCCCC1OC1C/C=C\CCCCCCCC(=O)O (stereo unspecified) [Leukotoxin B (12,13-EODE)]
percent Bodipy-positive cells [4]: 16.6 ± 12%

CNC1CC(c2ccc(Cl)c(Cl)c2)c2ccccc21 (stereo unspecified) [Indatraline]
percent Bodipy-positive cells [1]: 98.3 ± 2.4%

CCCCCCC(C)(C)c1ccc([C@@H]2C[C@H](O)CC[C@H]2CCCO)c(O)c1
percent Bodipy-positive cells [3]: 20.9 ± 12%

CN[C@@H]1C[C@H]2O[C@@](C)([C@@H]1OC)n1c3ccccc3c3c4c(c5c6ccccc6n2c5c31)C(=O)NC4 [Staurosporine]
percent Bodipy-positive cells [3]: 99.47 ± 0.74%

O=C(O)C(Cl)Cl
percent Bodipy-positive cells [1]: 4.05 ± 1.6%

CN1[C@@H]2CC[C@H]1C[C@@H](OC(=O)c1cc(Cl)cc(Cl)c1)C2 [3-Tropanyl-3,5-dichlorobenzoate]
percent Bodipy-positive cells [1]: 78.3 ± 2.8%

O=C(O)c1nn(Cc2ccc(Cl)cc2Cl)c2ccccc12 [Lonidamine]
percent Bodipy-positive cells [2]: 12.2 ± 9.1%

Cc1cc(C(C#N)c2ccc(Cl)cc2)c(Cl)cc1NC(=O)c1cc(I)cc(I)c1O (stereo unspecified) [Closantel]
percent Bodipy-positive cells (library stock concentration: 3 mM): 5.46 ± 1.1%
percent Bodipy-positive cells [2]: 14.2 ± 0.86%
percent Bodipy-positive cells [1]: 36 ± 3.3%

COc1ccc2c(c1OC)C(=O)O[C@@H]2[C@H]1c2cc3c(cc2CCN1C)OCO3 [Hydrastine (1r, 9s)]
percent Bodipy-positive cells (library stock concentration: 5.2 mM): 19.1 ± 3.2%

COc1ccc2c(c1OC)C(=O)O[C@@H]2[C@H]1c2cc3c(cc2CCN1C)OCO3 [Hydrastine hydrochloride]
percent Bodipy-positive cells: 36.4 ± 4.5%

CC(C)(C)c1cc(C=C(C#N)C#N)cc(C(C)(C)C)c1O [Tyrphostin A9]
percent Bodipy-positive cells [1]: 77.9 ± 4.1%

CC(C)(C)c1cc(C=C(C#N)C#N)cc(C(C)(C)C)c1O [Tyrphostin 9]
percent Bodipy-positive cells [2]: 32.6 ± 7.9%
percent Bodipy-positive cells (library stock concentration: 17.7 mM): 76.8 ± 9.9%

CCCCC/C=C\CC1OC1CCCCCCCC(=O)O (stereo unspecified) [Leukotoxin A (9,10-EODE)]
percent Bodipy-positive cells [4]: 8.22 ± 0.098%

C[C@@H]1C[C@@H]([C@H](O)CC2CC(=O)NC(=O)C2)C(=O)[C@@H](C)C1 [Cycloheximide]
percent Bodipy-positive cells: 59.1 ± 1.2%
percent Bodipy-positive cells (library stock concentration: 7.1 mM): 76.6 ± 3.6%
percent Bodipy-positive cells [1]: 89.9 ± 1.9%
percent Bodipy-positive cells (library stock concentration: 17.8 mM): 87.8 ± 6%

CC[C@@H](CO)NC(=O)[C@@H]1C=C2c3cccc4[nH]cc(c34)C[C@H]2N(C)C1 [Methylergonovine maleate]
percent Bodipy-positive cells (library stock concentration: 4.4 mM): 3.06 ± 2%

CC[C@@H](CO)NC(=O)[C@@H]1C=C2c3cccc4[nH]cc(c34)C[C@H]2N(C)C1 [Methylergometrine maleate]
percent Bodipy-positive cells: 40.2 ± 18%
percent Bodipy-positive cells [1]: 5.12 ± 4.6%

CCC1(C2=NCCN2)Cc2ccccc2O1 (stereo unspecified) [Efaroxan]
percent Bodipy-positive cells (library stock concentration: 9.2 mM): 14 ± 1.4%

COc1ccc2c(c1OC)C(=O)O[C@H]2[C@H]1c2cc3c(cc2CCN1C)OCO3 [1r,9s-hydrastine]
percent Bodipy-positive cells [1]: 15.7 ± 1.6%

CN(C)c1ccc(/C=C2\CCCN=C2c2cccnc2)cc1 [DMAB-anabaseine dihydrochloride]
percent Bodipy-positive cells [1]: 17 ± 0.18%

NC(N)=Nc1ccc2[nH]c3c(c2c1)C[C@@]1(O)[C@H]2Cc4ccc(O)c5c4[C@@]1(CCN2CC1CC1)[C@H]3O5 [Guanidinyl-naltrindole di-trifluoroacetate]
percent Bodipy-positive cells [1]: 73.6 ± 7.8%

NC(N)=Nc1ccc2[nH]c3c(c2c1)C[C@@]1(O)[C@H]2Cc4ccc(O)c5c4[C@@]1(CCN2CC1CC1)[C@H]3O5 [GNTI dihydrochloride]
percent Bodipy-positive cells [1]: 8.13 ± 0.98%

CCOC(=O)c1ncn2c1[C@@H]1CCCN1C(=O)c1cc(OC)ccc1-2
percent Bodipy-positive cells [1]: 28.9% and 5.48%

CCCCOC(=O)c1ccccc1C(=O)OCCCC [Dibutyl phthalate]
percent Bodipy-positive cells [5]: 2.06 ± 0.062%

COc1ccc2c(c1O)-c1cccc3c1[C@@H](C2)N(C)CC3 [R(-)-Apocodeine hydrochloride]
percent Bodipy-positive cells [1]: 79.3 ± 7.7%

C[N+]1(C)CCc2cc3c(cc2[C@H]1[C@@H]1OC(=O)c2c1ccc1c2OCO1)OCO3 [(-)-Bicuculline methochloride]
percent Bodipy-positive cells [1]: 9.78 ± 4.7%

C[N+]1(C)CCc2cc3c(cc2[C@H]1[C@@H]1OC(=O)c2c1ccc1c2OCO1)OCO3 [(-)-Bicuculline methbromide, 1(S), 9(R)]
percent Bodipy-positive cells [1]: 37 ± 1.1%

C[N+]1(C)CCc2cc3c(cc2[C@H]1[C@@H]1OC(=O)c2c1ccc1c2OCO1)OCO3 [(-)-Bicuculline methiodide]
percent Bodipy-positive cells [1]: 2.67 ± 0.55%

CCNC(=O)C1OC(n2cnc3c(N)ncnc32)C(O)C1O (stereo unspecified) [5'-N-Ethylcarboxamidoadenosine (NECA)]
percent Bodipy-positive cells (library stock concentration: 16.2 mM): 14.4 ± 5.2%

Cc1nnc2n1-c1ccc(Cl)cc1C(c1ccccc1)=NC2 [Alprazolam]
percent Bodipy-positive cells [1]: 9.82 ± 1.8%

CN1CC[C@@H]2CN3CCc4cccc(c43)[C@@H]2C1 [SDZ SER 082 fumarate]
percent Bodipy-positive cells [1]: 9.9 ± 1.5%

C[N+]1(C)[C@@H]2CC(OC(=O)[C@H](CO)c3ccccc3)C[C@H]1[C@@H]1O[C@@H]12 (single isomer, unassigned; (-)) [(-)-Scopolamine methyl nitrate]
percent Bodipy-positive cells [1]: 15.8 ± 1.3%

NC(CCP(=O)(O)O)C(=O)O (stereo unspecified) [(?)-2-Amino-4-phosphonobutyric acid]
percent Bodipy-positive cells [1]: 50.1 ± 7.2%

CC(=O)O[C@H]1C(=O)[C@@]2(C)[C@H]([C@H](OC(=O)c3ccccc3)[C@]3(O)C[C@H](O)C(C)=C1C3(C)C)[C@]1(OC(C)=O)CO[C@@H]1C[C@@H]2O [Baccatin iii]
percent Bodipy-positive cells [1]: 34.6 ± 6%

CC(C)(O)[C@@H]1[C@H]2OC(=O)[C@@H]1[C@]1(O)C[C@H]3O[C@]34C(=O)O[C@H]2[C@]14C [Picrotin]
percent Bodipy-positive cells [1]: 47.9 ± 3.6%

O=C(O)/C=C\C(=O)O.O=C1/C(=C/c2ccccc2)C[C@@]2(O)C3Cc4ccc(O)c5c4[C@@]2(CCN3CC2CC2)[C@H]1O5 [BNTX maleate]
percent Bodipy-positive cells [1]: 95 ± 5%

c1cncc([C@@H]2CCCCN2)c1 [Anabasine]
percent Bodipy-positive cells: 7.79 ± 3.2%

NC(Cc1cc(O)c(O)cc1O)C(=O)O (racemic) [6-Hydroxy-DL-DOPA]
percent Bodipy-positive cells [1]: 47.8 ± 28%

COc1cc(C(O)CN)ccc1O (stereo unspecified)
percent Bodipy-positive cells [1]: 35.2 ± 5.8%

CCCCC/C=C\C/C=C\C/C=C\C/C=C\CCCC(=O)OCCN [O-Arachidonoyl Ethanolamine (hydrochloride)]
percent Bodipy-positive cells [3]: 14.3 ± 2.3%

O=c1[nH]oc2c1CCNC2 [THIP hydrochloride]
percent Bodipy-positive cells [1]: 26.8% and 12.9%

O=c1[nH]oc2c1CCNC2 [THIP Hydrochloride]
percent Bodipy-positive cells: 8.95 ± 3.5%

C[C@H](N)C(=O)N[C@@H](C)C(=O)N[C@@H](Cc1ccccc1)C(=O)CCl
percent Bodipy-positive cells (library stock concentration: 14.7 mM): 93.4 ± 2.9%

CC[C@@]1([C@H]2O[C@H]([C@H]3O[C@@](O)(CO)[C@H](C)C[C@@H]3C)C[C@H]2C)CC[C@H]([C@@]2(C)CC[C@]3(C[C@H](O)[C@@H](C)[C@@H]([C@H](C)[C@H](OC)[C@@H](C)C(=O)O)O3)O2)O1 [Monensin sodium]
percent Bodipy-positive cells [5]: 57.5 ± 2.2%

COc1cc2c(c(OC)c1OC)-c1ccc(OC)c(=O)cc1[C@@H](NC(C)=O)CC2 [Colchicine]
percent Bodipy-positive cells: 69.2 ± 3.6%
percent Bodipy-positive cells (library stock concentration: 5 mM): 11.2 ± 1.4%

CC(C)C1CNC(C(=O)O)C1CC(=O)O (stereo unspecified) [Dihydrokainic acid]
percent Bodipy-positive cells [1]: 33 ± 2.6%

N#C[C@H](O[C@@H]1O[C@H](CO[C@@H]2O[C@H](CO)[C@@H](O)[C@H](O)[C@H]2O)[C@@H](O)[C@H](O)[C@H]1O)c1ccccc1 [Amygdalin]
percent Bodipy-positive cells [1]: 36.1 ± 2.8%

CC[C@@H](CO)NC(=O)[C@@H]1C=C2c3cccc4c3c(cn4C)C[C@H]2N(C)C1 [Methysergide]
percent Bodipy-positive cells (library stock concentration: 5.7 mM): 6.59 ± 1.8%

CC(=O)N1CC[N+](C)(C)CC1 [4-Acetyl-1,1-dimethylpiperazinium iodide]
percent Bodipy-positive cells [1]: 5.96 ± 0.94%

C[C@]12CC[C@H](O)CC1=CC[C@@H]1[C@@H]2CC[C@]2(C)C(=O)CC[C@@H]12 [Dehydroepiandrosterone]
percent Bodipy-positive cells (library stock concentration: 6.9 mM): 9.56 ± 0.47%

C[C@]12CC[C@H](O)CC1=CC[C@@H]1[C@@H]2CC[C@]2(C)C(=O)CC[C@@H]12 [Dehydroepiandrosterone (DHEA)]
percent Bodipy-positive cells [2]: 27.7 ± 17%
percent Bodipy-positive cells [1]: 11.9 ± 1.7%

Cc1cc([C@@H]2CCCN2C)on1 [ABT-418 hydrochloride]
percent Bodipy-positive cells [1]: 44.3 ± 11%

— the supplement of paper PMC9135407
